Results published in the supplement of paper PMC8728848.
This is one part of the list.

Columns and labels:
Assay in all cases: glycan array binding signal (z-score within array); higher = stronger binding
Details in all cases: glycan notation: IUPAC condensed, linker removed
[1] = biological target: Fuc(a1-3)[Gal(b1-4)]GlcNAc(b1-3)Gal(b1-4)[Fuc(a1-3)]GlcNAc
Outline: (§1)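 Arrays were curated from the Consortium for Functional Glycomics database, 3228 in total, and kept only where the protein sequence was available. Binding is expressed as a within-array Z-score. This score was averaged across arrays of the same protein sequence at different concentrations or buffers and across linkers, and negative values can be read as non-binding.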

[2] = biological target: Fuc(a1-3)[Gal(b1-4)]GlcNAc(b1-3)Gal(b1-4)[Fuc(a1-3)]GlcNAc(b1-3)Gal(b1-4)[Fuc(a1-3)]GlcNAc
Outline: as §1

[3] = biological target: Fuc(a1-3)[Gal(b1-4)]GlcNAc(b1-3)GalNAc
Outline: as §1

[4] = biological target: Fuc(a1-3)[Gal(b1-4)]GlcNAc(b1-6)GalNAc
Outline: as §1

[5] = biological target: Fuc(a1-3)[Gal(b1-4)]GlcNAc(b1-6)[Gal(b1-3)GlcNAc(b1-3)]Gal(b1-4)Glc
Outline: as §1

[6] = biological target: Fuc(a1-3)[Gal(b1-4)]GlcNAc6S
Outline: as §1

[7] = biological target: Fuc(a1-3)[Gal3S(b1-4)]Glc
Outline: as §1

[8] = biological target: Fuc(a1-3)[Gal3S(b1-4)]GlcNAc
Outline: as §1

[9] = biological target: Fuc(a1-3)[Gal3S(b1-4)]GlcNAc6S
Outline: as §1

[10] = biological target: Fuc(a1-3)[GalNAc(b1-4)]GlcNAc
Outline: as §1

[11] = biological target: Fuc(a1-3)[GalNAc(b1-4)]GlcNAc6S
Outline: as §1

[12] = biological target: Fuc(a1-4)GlcNAc
Outline: as §1

[13] = biological target: Fuc(b1-3)GlcNAc
Outline: as §1

[14] = biological target: Gal(a1-2)Gal
Outline: as §1

[15] = biological target: Gal(a1-3)Gal
Outline: as §1

[16] = biological target: Gal(a1-3)Gal(b1-3)GlcNAc
Outline: as §1

[17] = biological target: Gal(a1-3)Gal(b1-3)GlcNAc(b1-2)Man
Outline: as §1

[18] = biological target: Gal(a1-3)Gal(b1-3)GlcNAc(b1-2)Man(a1-3)[Gal(a1-3)Gal(b1-3)GlcNAc(b1-2)Man(a1-6)]Man(b1-4)GlcNAc(b1-4)GlcNAc
Outline: as §1

[19] = biological target: Gal(a1-3)Gal(b1-3)GlcNAc(b1-3)GalNAc
Outline: as §1

[20] = biological target: Gal(a1-3)Gal(b1-3)GlcNAc(b1-6)GalNAc
Outline: as §1

[21] = biological target: Gal(a1-3)Gal(b1-3)[Fuc(a1-4)]GlcNAc(b1-2)Man(a1-3)[Gal(a1-3)Gal(b1-3)[Fuc(a1-4)]GlcNAc(b1-2)Man(a1-6)]Man(b1-4)GlcNAc(b1-4)GlcNAc
Outline: as §1

[22] = biological target: Gal(a1-3)Gal(b1-4)Glc
Outline: as §1

[23] = biological target: Gal(a1-3)Gal(b1-4)GlcNAc
Outline: as §1

[24] = biological target: Gal(a1-3)Gal(b1-4)GlcNAc(b1-2)Man
Outline: as §1

[25] = biological target: Gal(a1-3)Gal(b1-4)GlcNAc(b1-2)Man(a1-3)[Gal(a1-3)Gal(b1-4)GlcNAc(b1-2)Man(a1-6)]Man(b1-4)GlcNAc(b1-4)GlcNAc
Outline: as §1

[26] = biological target: Gal(a1-3)Gal(b1-4)GlcNAc(b1-3)GalNAc
Outline: as §1

[27] = biological target: Gal(a1-3)Gal(b1-4)GlcNAc(b1-6)GalNAc
Outline: as §1

[28] = biological target: Gal(a1-3)Gal(b1-4)[Fuc(a1-3)]GlcNAc
Outline: as §1

[29] = biological target: Gal(a1-3)Gal(b1-4)[Fuc(a1-3)]GlcNAc(b1-2)Man(a1-3)[Gal(a1-3)Gal(b1-4)[Fuc(a1-3)]GlcNAc(b1-2)Man(a1-6)]Man(b1-4)GlcNAc(b1-4)GlcNAc
Outline: as §1

[30] = biological target: Gal(a1-3)GalNAc
Outline: as §1

[31] = biological target: Gal(a1-3)[Gal(a1-4)]Gal(b1-4)GlcNAc
Outline: as §1

[32] = biological target: Gal(a1-4)Gal(b1-3)GlcNAc(b1-2)Man(a1-3)[Gal(a1-4)Gal(b1-3)GlcNAc(b1-2)Man(a1-6)]Man(b1-4)GlcNAc(b1-4)GlcNAc
Outline: as §1

[33] = biological target: Gal(a1-4)Gal(b1-4)Glc
Outline: as §1

[34] = biological target: Gal(a1-4)Gal(b1-4)GlcNAc
Outline: as §1

[35] = biological target: Gal(a1-4)Gal(b1-4)GlcNAc(b1-2)Man(a1-3)[Gal(a1-4)Gal(b1-4)GlcNAc(b1-2)Man(a1-6)]Man(b1-4)GlcNAc(b1-4)GlcNAc
Outline: as §1

[36] = biological target: Gal(a1-4)Gal(b1-4)GlcNAc(b1-3)Gal(b1-4)Glc
Outline: as §1

[37] = biological target: Gal(a1-4)GlcNAc
Outline: as §1

[38] = biological target: Gal(a1-6)Glc
Outline: as §1

B1: PX14343C-bfa-541-26-541 (Bacteroides fragilis) (protein)
chain: KAPLDEIADDSFWSDETLVKYYVNDLYSEISVDGLQLQENRSDNSVSAQRDKYRASWFKFNYDMVSASDPQDDDVWEDYYVKVRKCNRFFERIGTSTIEESEKSRLTGEVHFLRAMFYFEMVKRYGGVILLDKVLTMEDNWEIPRSSEKECYDFILEDLKKATEMLPASYGSREKGRATKGAAYALKSRVELYDKRYEDVIKSCAEVYKLGYELVDGTTPEKYRSIWWTTNKDNKEIIFDVQYKSPDVYNNMMVCNMVTYINDKYGDRGWGGLGPTQELIDAFEMADGTPATQYSQAPADQVFDINTCGIYEGREPRFYANIVFHGSQIFFNADKGAVTVDRYLMDTPDKGDGSLTGYNVWKWIDYDNYNYPYAGAGSPDFSTNWIILRYAEIYLNDAEARLETGDVEGARKAVNMIRQRVGLPDLTESDPEKLRELIRKERRIEFAFEEQRFYDVRRWKIGPETQTTLHGVRFVSPTEFKVTKTDIRTWNDRLYLTPVPHDEIVRSSVLKQNLGY
glycan array binding signal (z-score) [1]: 0.118
glycan array binding signal (z-score) [2]: -0.455
glycan array binding signal (z-score) [3]: 0.824
glycan array binding signal (z-score) [4]: 0.956
glycan array binding signal (z-score) [5]: -0.383
glycan array binding signal (z-score) [6]: -0.902
glycan array binding signal (z-score) [7]: -0.316
glycan array binding signal (z-score) [8]: -0.706
glycan array binding signal (z-score) [9]: -0.963
glycan array binding signal (z-score) [10]: 0.848
glycan array binding signal (z-score) [11]: 0.249
glycan array binding signal (z-score) [12]: -0.619
glycan array binding signal (z-score) [13]: -0.036
glycan array binding signal (z-score) [14]: -0.474
glycan array binding signal (z-score) [15]: -0.601
glycan array binding signal (z-score) [16]: -0.044
glycan array binding signal (z-score) [17]: -0.753
glycan array binding signal (z-score) [18]: 0.172
glycan array binding signal (z-score) [19]: -0.994
glycan array binding signal (z-score) [20]: 0.308
glycan array binding signal (z-score) [21]: 0.905
glycan array binding signal (z-score) [22]: -0.559
glycan array binding signal (z-score) [23]: 7.53
glycan array binding signal (z-score) [24]: -1.04
glycan array binding signal (z-score) [25]: 2.85
glycan array binding signal (z-score) [26]: -0.369
glycan array binding signal (z-score) [27]: -0.277
glycan array binding signal (z-score) [28]: 0.78
glycan array binding signal (z-score) [29]: 1.03
glycan array binding signal (z-score) [30]: -0.042
glycan array binding signal (z-score) [31]: 0.804
glycan array binding signal (z-score) [32]: 0.351
glycan array binding signal (z-score) [33]: 1.07
glycan array binding signal (z-score) [34]: -0.894
glycan array binding signal (z-score) [35]: -0.252
glycan array binding signal (z-score) [36]: -0.346
glycan array binding signal (z-score) [37]: -0.445
glycan array binding signal (z-score) [38]: -1.09
